# Measurements reported in the supplement of paper PMC12889115.
# Some of the results follow. Values are raw readings; no control value is given beside them.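 Primary screen: polymyxin B was added at a level permeabilizing Salmonella outer membranes while sparing inner membranes. DMSO wells, both with and without polymyxin B, established maximum growth. Plate-to-plate variation meant each plate was ranked on its own, and the lowest-OD600 compounds were selected as hits.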
# Test system: Salmonella enterica serovar Typhimurium SL1344
# Assay: bacterial growth OD600 after 18 h with compound and polymyxin B; higher = more bacterial growth (less inhibition)
# Details: 50 µM, Mueller-Hinton broth
Structure (SMILES),bacterial growth OD600 (polymyxin B 0.75 µg/mL),bacterial growth OD600 (polymyxin B 1 µg/mL)
O=C(Cc1ccc(N2CCC(NCCc3cccs3)CC2)cc1)NCc1ccccc1,0.808,–
CCNC(=O)N(C)CC1CCCN(CCc2ccc(OC)cc2)C1 (centres undefined),–,1.08
CC1(C)Cc2nc(C(C)(C)C)ncc2C(NC(=O)CCN2CCCC2=O)C1 (centres undefined),–,1.01
CC(C)CCN1CCC(N2CCCC(C(=O)NC3CC3)C2)CC1 (centres undefined),0.84,–
CN(C(=O)CCn1cnnn1)C1CCCN(CCc2ccccc2)C1 (centres undefined),–,1.17
CO[C@H]1[C@H](NC(=O)c2ccco2)c2ccccc2C12CCN(Cc1nc(C(C)C)cs1)CC2,0.791,–
O=C(NCCCN1CCOCC1)c1cc(Cn2ccc3ccccc32)[nH]n1,–,0.941
CC(=O)N1CCC(n2c(CCc3ccccc3)nc3cccnc32)CC1,1.05,–
COc1ccc(CNC(=O)C2CCN(c3nc(C)c4ccc(S(C)(=O)=O)cc4n3)CC2)cc1,0.855,–
COc1ccc2cc(C(=O)C3CCCN(Cc4cn(C)nc4C)C3)ccc2c1 (centres undefined),–,0.908
COc1ccc(C(=O)C2CCCN(C(=O)c3ccc(OC(C)C)cc3)C2)cc1F (centres undefined),–,0.022
Cc1nc(N2CCC(C(=O)N(C)Cc3cccc4cnccc34)CC2)nc2ccc(C(C)C)cc12,0.004,–
COc1cccc(C2c3[nH]c4ccccc4c3CCN2C(=O)c2nc(C)c[nH]2)c1 (centres undefined),–,0.001
CCOCCCNC(=O)C1CCCN(c2nc(C)c3ccc(S(C)(=O)=O)cc3n2)C1 (centres undefined),0.864,–
Cc1cc(C)c(CNC2COc3ccccc3C2)c(-n2cccn2)c1 (centres undefined),–,0.789
Cc1cnc(SCCN2CCOCC2)nc1C1CCCN(C(=O)c2ccc3cc[nH]c3c2)C1 (centres undefined),0.764,–
COc1ccc(CCCN2C(=O)O[C@@H]3CN(C4CCOCC4)C[C@@H]32)cc1,–,0.896
COc1ccc(CCN2CC(NC(=O)C3(C)CC3)CC2=O)cc1 (centres undefined),–,0.99
CC(=O)N1CCCN(C(=O)CC(c2cccc(O)c2)c2ccccc2O)CC1 (centres undefined),–,0.9
